Experimental data: publication PMC7819943, “Rice protein-binding microarrays: a tool to detect cis-acting elements near promoter regions in rice”
Some of the results follow.

Amino acid sequences for entries named in this document (tags omitted).
UniProt Q0JBA9, entry or part of it: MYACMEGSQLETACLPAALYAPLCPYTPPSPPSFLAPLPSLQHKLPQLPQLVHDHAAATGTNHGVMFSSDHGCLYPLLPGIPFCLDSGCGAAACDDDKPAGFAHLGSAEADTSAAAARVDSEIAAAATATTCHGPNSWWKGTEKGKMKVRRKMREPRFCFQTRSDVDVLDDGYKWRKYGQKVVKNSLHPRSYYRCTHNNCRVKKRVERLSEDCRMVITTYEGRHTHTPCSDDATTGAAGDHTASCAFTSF

Molecular target: OsWRKY34 (Oryza sativa, UniProt Q0JBA9 1-250)
Assay: protein-binding microarray (RPBM); PBS, 2% BSA, 51.3 ng/ul salmon testes DNA, 50 uM zinc acetate, 200 nM TF, 25 C, 1 h; high values mean tight binding
Settings: protein: recombinant; tags: N-terminal polyhistidine and DsRed monomer fusion (pET32a); label: CyDye5-dUTP incorporated in the synthesized complementary strand; 3' TTTTT single-stranded linker to array surface; dsDNA, one strand shown
Procedure, shortened: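 Transcription factors were each fused at the N-terminus to a polyhistidine tag plus DsRed and expressed in E. coli BL21-CodonPlus before Ni–NTA purification. Binding to a double-stranded custom Agilent array was carried out with 200 nM protein at 25 °C for 1 h in PBS, 2% BSA, salmon testes DNA and 50 µM zinc acetate. The binding signal is per-feature fluorescence intensity, in arbitrary units, on an Axon 4000B scanner.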

Sequence | binding signal
TATTAATATTATTTTACTTACTCTGGAGCTTCTTGTCCATCGGAGTCACCTAGTGCAG | 9870 fluorescence intensity (a.u.)
GTACGGTAAATTCTAGTTTAACTCTAAGTCATTTTATAATCGGAGTCACCTAGTGCAG | 8610 fluorescence intensity (a.u.)
TTAATTGGCTTTCTCGTTTTGTGTGCCCCGCTTTTAATATCGGAGTCACCTAGTGCAG | 9300 fluorescence intensity (a.u.)
TTCTACTTCTACACCTCGCAATGAAAAAAACAAATTTGACCGGAGTCACCTAGTGCAG | 8060 fluorescence intensity (a.u.)
TTGTCCAGTTTTCACTGTGTCTACACCGTTTTGTGTATTTCGGAGTCACCTAGTGCAG | 10000 fluorescence intensity (a.u.)
GCCCACTTCTGCCCAAATCGCATGTCCCGTCCAGGTTCACCGGAGTCACCTAGTGCAG | 10400 fluorescence intensity (a.u.)
CCGCTTCCATCCATCCATCCATCCATCTCCCGTGGACTTGCGGAGTCACCTAGTGCAG | 13300 fluorescence intensity (a.u.)
CATTTTGTTAGATTGAGTCTTTTCTTTCTTCTTCATCTATCGGAGTCACCTAGTGCAG | 8400 fluorescence intensity (a.u.)
ACATGTCATACACACAACGTTTTATAGTCCGTGCTGCAGCCGGAGTCACCTAGTGCAG | 9630 fluorescence intensity (a.u.)
GGACCACATGGACAGGTGCCCATCCAGCTCGGCTGTTCAACGGAGTCACCTAGTGCAG | 8320 fluorescence intensity (a.u.)
ACGTCCTCGGACCGCCTGACATCCCGTTGTATTTCTTGCGCGGAGTCACCTAGTGCAG | 8080 fluorescence intensity (a.u.)
CAATCACATCCGCGCGCATTTGGCCTGCGCCTTCAAATTTCGGAGTCACCTAGTGCAG | 12700 fluorescence intensity (a.u.)
ATTGTTCTGCTGCCTTGTGGAATTCCATGATTCATTTTTCCGGAGTCACCTAGTGCAG | 8870 fluorescence intensity (a.u.)
TCGCCCCGCCATGCCGCTCACCGTCCTCGCGCCTTGCCTGCGGAGTCACCTAGTGCAG | 8980 fluorescence intensity (a.u.)
TTTTGTTTGTTTTGATGTCGTGTCATGTAGATACTCGTACCGGAGTCACCTAGTGCAG | 9370 fluorescence intensity (a.u.)
TTCTCAATGTTCTTTTGGCTTTAGGCATATAATTTAGAGACGGAGTCACCTAGTGCAG | 9480 fluorescence intensity (a.u.)
GCTATTTACTTGCTGGCATCAAGGGACAGTGTCATCACTTCGGAGTCACCTAGTGCAG | 8620 fluorescence intensity (a.u.)
TACCGCCGGTTTGACCAACTACCACAACCCGGTCTGACCGCGGAGTCACCTAGTGCAG | 8530 fluorescence intensity (a.u.)
ATCTTTGCACAGAAACTCATCTCCTCATCGTTTATACTTACGGAGTCACCTAGTGCAG | 8050 fluorescence intensity (a.u.)
ATCCTCTTGTTTCGTACAGGTCACTTAAATAGTTATAAAACGGAGTCACCTAGTGCAG | 8300 fluorescence intensity (a.u.)
TATTTGTTACTAGTATTTCTTTTAGTTTTGGTACCGCTAGCGGAGTCACCTAGTGCAG | 11200 fluorescence intensity (a.u.)

Sequence | binding signal
TGCGCTACTATTGTTGTGGCTTGTGCTTTTCAGTTTCCACCGGAGTCACCTAGTGCAG | 8800 fluorescence intensity (a.u.)
CTTATTTCTTTTCCAGTTAGGCATATATTATCTGTTTTCTCGGAGTCACCTAGTGCAG | 8700 fluorescence intensity (a.u.)
AACTCTGATACGATGTGATATGCTGGATCGGGGAGGGGCGCGGAGTCACCTAGTGCAG | 15000 fluorescence intensity (a.u.)
TGTTGATAAAGGCTTCGATGCTGCACACGACCTTTCTTCTCGGAGTCACCTAGTGCAG | 9170 fluorescence intensity (a.u.)
CTCCTACTCATCATCATCGTCTTCTTCTTCTTGCCCAACTCGGAGTCACCTAGTGCAG | 12100 fluorescence intensity (a.u.)
CACAGCCACAGAAGACCCAAAGATGCGATTTTTTTTCTTCCGGAGTCACCTAGTGCAG | 9330 fluorescence intensity (a.u.)
TATTCTGCACAACACTCTGAATCACTCATCACTCACTAGTCGGAGTCACCTAGTGCAG | 8192 fluorescence intensity (a.u.)
CCGTAGCCGACTCGTCCTCGTCTTCCAGCTCAGCTGCAGCCGGAGTCACCTAGTGCAG | 8470 fluorescence intensity (a.u.)
GTCGATCCGCGGTTTCTCGAAGACGTTGTTGTGGTCTCATCGGAGTCACCTAGTGCAG | 9290 fluorescence intensity (a.u.)
TACCTGTTTGTTTTTAAGTTCAGATATTATATTACGTAACCGGAGTCACCTAGTGCAG | 8930 fluorescence intensity (a.u.)
GTTCCTCTCGCGCCTCACCACCGAATCACCCTTTTGCCTTCGGAGTCACCTAGTGCAG | 8990 fluorescence intensity (a.u.)
TGGCTCTTGCATCTCCACACACACACACACATTCAATTCACGGAGTCACCTAGTGCAG | 9880 fluorescence intensity (a.u.)
GCTTTCTTGTCAAAACAGATCATGCCTTTTGTTTGTTCCACGGAGTCACCTAGTGCAG | 9160 fluorescence intensity (a.u.)
ATGTCACGGTCATTTTTACTTCTTTACCGGCTGGGATAAGCGGAGTCACCTAGTGCAG | 9070 fluorescence intensity (a.u.)
GGTTGCTGTGGTTGGCGAGGTGGGGTGGGGCTTGGAGTAACGGAGTCACCTAGTGCAG | 27400 fluorescence intensity (a.u.)
GAAAGCCATTCTTCTTTATGCTCAGCTGTCGGATTTGCCTCGGAGTCACCTAGTGCAG | 9010 fluorescence intensity (a.u.)
GAGTTTGCTATGGTACCTGCTCTTACCCGCATGGCGCAAGCGGAGTCACCTAGTGCAG | 9180 fluorescence intensity (a.u.)
GGCATTTGGGTGTTATGCATGCCGGCCGGCCCGTACGTACCGGAGTCACCTAGTGCAG | 11700 fluorescence intensity (a.u.)
AACCCAAGTTTCATCTTTCTTCCACATCTCCCAACTCTCGCGGAGTCACCTAGTGCAG | 8990 fluorescence intensity (a.u.)
AAATATATTTATAGCTGTCTTATAGTCTACTATTGTACCTCGGAGTCACCTAGTGCAG | 8560 fluorescence intensity (a.u.)
TACAATTTTGTTTTTGACAACTTTTTCACATGAGTTCATTCGGAGTCACCTAGTGCAG | 8270 fluorescence intensity (a.u.)

A stretch taken from the entries so far, as a working copy:
Sequence | binding signal
TACCGCCGGTTTGACCAACTACCACAACCCGGTCTGACCGCGGAGTCACCTAGTGCAG | 8530 fluorescence intensity (a.u.)
ATCTTTGCACAGAAACTCATCTCCTCATCGTTTATACTTACGGAGTCACCTAGTGCAG | 8050 fluorescence intensity (a.u.)
ATCCTCTTGTTTCGTACAGGTCACTTAAATAGTTATAAAACGGAGTCACCTAGTGCAG | 8300 fluorescence intensity (a.u.)
